Measured values taken from publication PMC10763561 (RSC Chemical Biology, 2023).
Some peptides are written in HELM: one residue between dots, names in brackets for other building blocks, links after the first $.

Experiment: general procedure: Fmoc solid-phase peptide synthesis; Rink Amide MBHA low-loading resin (0.308 mmol/g); HATU/DIPEA (manual); DIC/oxyma (automated)
Settings: for final HPLC purity / isolated yield: whole synthesis; for final HPLC purity: analytical HPLC, scale of the general procedure 0.1 or 0.25 mmol; for isolated yield: scale 0.25 mmol; for cyclisation yield: cyclisation step

Substance	final HPLC purity [%]	isolated yield [%]	cyclisation yield (run 1) [% yield]	cyclisation yield (run 2)
PEPTIDE1{[ac].T.S.F.A.C.Y.W.N.G.L.S.C.[am]}$$$$V2.0	91	14		
PEPTIDE1{[5TAMRA].R.F.M.D.Y.W.E.G.L.[am]}$$$$V2.0	95			
PEPTIDE1{[ac].T.S.F.A.E.Y.W.N.N.L.S.P.[am]}$$$$V2.0	96	6		
PEPTIDE1{[ac].T.S.F.A.C.Y.W.N.G.L.S.C.[am]}|CHEM1{[AzoCl4]}$PEPTIDE1,CHEM1,6:R3-1:R1|PEPTIDE1,CHEM1,13:R3-1:R2$$$V2.0			38	18-38% yield
